Record: PubChem BioAssay AID1259405 (NCATS, 2018)

Assay: 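Mouse-designed siRNAs used to find CHO productivity engineering targets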 (primary screen)
Cells: Chinese hamster CHO-K1 ovary cells with stable secreted eGFP expression
Reagent: single siRNA against mouse genes, 0.8 pmol siRNA per well (2 µl of 400 nM stock)
Duration: 3 days
Read-out: 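Percent of the per-plate non-targeting control median for intracellular GFP per well by laser scanning cytometry and for cell viability by ATP luminescence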
Reading the numbers: GFP, % of control: higher = more GFP per well, higher productivity; viability (ATP), % of control: higher = more viable cells (more ATP)
Call rule: 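a knock-down is called active if GFP reaches 120% or more of non-targeting control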
Shown is one part, drawn at random, of about 50,000 reagents tested. About 4,000 of them (8%) were called active. 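Mouse siRNA library applied to hamster cells; one well for each siRNA.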 A number with no mark means an inactive call. Reagents against one gene are numbered here.

no.	gene	reagent	GFP, % of control	viability (ATP), % of control
1	Tyw2 (tRNA wybutosine-synthesizing protein 2)	1	71.5	34.8
2	Tyw2 (tRNA wybutosine-synthesizing protein 2)	2	117	91.8
3	Tyw2 (tRNA wybutosine-synthesizing protein 2)	3	68.7	61.1
4	Golga4 (golgin A4)	1	56.5	61.9
5	Golga4 (golgin A4)	2	91.7	83.1
6	Golga4 (golgin A4)	3	57.6	66.2
7	Fam20c (FAM20C, golgi associated secretory pathway kinase)	1	80.7	79.4
8	Fam20c (FAM20C, golgi associated secretory pathway kinase)	2	67.1	56.7
9	Fam20c (FAM20C, golgi associated secretory pathway kinase)	3	117	124
10	Ivl (involucrin)	1	69	55.1
11	Ivl (involucrin)	2	119	85.9
12	Ivl (involucrin)	3	61.5	58.6
13	Scaper (S phase cyclin A-associated protein in the ER)	1	42	73.4
14	Scaper (S phase cyclin A-associated protein in the ER)	2	150 (active)	64.7
15	Scaper (S phase cyclin A-associated protein in the ER)	3	89.9	88.2
16	Cibar1 (CBY1 interacting BAR domain containing 1)	1	31.9	39.5
17	Cibar1 (CBY1 interacting BAR domain containing 1)	2	69.2	93.7
18	Cibar1 (CBY1 interacting BAR domain containing 1)	3	171 (active)	155
19	Socs4 (suppressor of cytokine signaling 4)	1	107	84.2
20	Socs4 (suppressor of cytokine signaling 4)	2	88.3	69.4
21	Socs4 (suppressor of cytokine signaling 4)	3	81.3	69.8
22	Chchd5 (coiled-coil-helix-coiled-coil-helix domain containing 5)	1	94.4	105
23	Chchd5 (coiled-coil-helix-coiled-coil-helix domain containing 5)	2	64.2	85.6
24	Chchd5 (coiled-coil-helix-coiled-coil-helix domain containing 5)	3	85.7	80.7
25	Il22b (interleukin 22B)	1	122 (active)	94.8
26	Il22b (interleukin 22B)	2	98.8	77
27	Il22b (interleukin 22B)	3	62.3	86.5
28	Zfp94 (zinc finger protein 94)	1	68.4	69.7
29	Zfp94 (zinc finger protein 94)	2	84.7	95.3
30	Dbn1 (drebrin 1)	1	102	91.4
31	Dbn1 (drebrin 1)	2	71.1	75.8
32	Dbn1 (drebrin 1)	3	72.3	71.3
33	Rasal1 (RAS protein activator like 1 (GAP1 like))	1	96	75.2
34	Rasal1 (RAS protein activator like 1 (GAP1 like))	2	117	60.5
35	Rasal1 (RAS protein activator like 1 (GAP1 like))	3	76.5	62.2
